Patent publication US20150376276A1 (Seagen, published 2015)
No constants are given. Whether binding was seen depends on the method and setting.

Target: cynomolgus monkey NTB-A (cynomolgus monkey)
Assay: flow cytometry on stable 293-F17 transfectants

B1: 26B7 murine IgG1 antibody (antibody, V domains shown)
VH: QVQLLQPGAEVVKPGTSVKLSCKASGYNFTIYWINWVKLRPGQGLEWIGDIHPGRGNTNLNEKFKTKATLTVDTSSSTAYMQLNSLAFEDSALYYCAREDEDWYFDVWGAGTTVTVSS
VL: DIQMNQSPSSLSASLGDTITITCRASQGISIWFNWYQQKSGNIPKLLIYKTSNLHTGVPPRFSGSGSGTDFTLTISSLQPEDIATYYCLQSQSYPYTFGGGTKLEIKR
notes: Murine IgG1; also called mAb 26B7
- binding: no binding (tested: 2 µg/mL)
